In paper PMC12655351, “Synthesis and Anticancer Activity Evaluation of New 5-((5-Nitrofuran-2-yl)allylidene)-2-thioxo-4-thiazolidinones” (Pharmaceuticals, 2025):

Columns and labels:
Colon cancer = assay: NCI-60 SRB screen, subpanel; conditions: for SI (GI50): ratio CC50 / IC50; for SI (LC50): ratio IC50 / GI50
Leukemia = Leukemia subpanel; ratio GI50 / IC50

SMILES	SI (GI50) (Colon cancer)	SI (LC50) (Colon cancer)	SI (LC50) (Leukemia)
CCCC(C(=O)O)N1C(=O)/C(=C/C=C/c2ccc([N+](=O)[O-])o2)SC1=S (stereo not drawn) [4b, 2-((Z)-5-((E)-3-(5-Nitrofuran-2-yl)allylidene)-4-oxo-2-thioxothiazolidin-3-yl)pentanoic acid]	1.25	4.30	0.28
CC(C)C(C(=O)O)N1C(=O)/C(=C/C=C/c2ccc([N+](=O)[O-])o2)SC1=S (stereo not drawn) [5b, 3-Methyl-2-((Z)-5-((E)-3-(5-nitrofuran-2-yl)allylidene)-4-oxo-2-thioxothiazolidin-3-yl)butanoic acid]	1.10	5.52	0.22
CCCCC(C(=O)O)N1C(=O)/C(=C/C=C/c2ccc([N+](=O)[O-])o2)SC1=S (stereo not drawn) [6b, 2-((Z)-5-((E)-3-(5-nitrofuran-2-yl)allylidene)-4-oxo-2-thioxothiazolidin-3-yl)hexanoic acid]	1.27	4.28	0.29
O=C(O)C(c1ccccc1)N1C(=O)/C(=C/C=C/c2ccc([N+](=O)[O-])o2)SC1=S (stereo not drawn) [9b, 2-((Z)-5-((E)-3-(5-Nitrofuran-2-yl)allylidene)-4-oxo-2-thioxothiazolidin-3-yl)-2-phenylacetic acid]	1.34	0.95	0.63
O=C(O)CCN1C(=O)/C(=C/C=C/c2ccc([N+](=O)[O-])o2)SC1=S [12b, 3-((Z)-5-((E)-3-(5-Nitrofuran-2-yl)allylidene)-4-oxo-2-thioxothiazolidin-3-yl)propanoic acid]	1.10	5.52	0.20
O=C(O)CCCN1C(=O)/C(=C/C=C/c2ccc([N+](=O)[O-])o2)SC1=S [13b, 4-((Z)-5-((E)-3-(5-Nitrofuran-2-yl)allylidene)-4-oxo-2-thioxothiazolidin-3-yl)butanoic acid]	3.10	1.58	0.22
O=C(O)CCCCCN1C(=O)/C(=C/C=C/c2ccc([N+](=O)[O-])o2)SC1=S [14b, 6-((Z)-5-((E)-3-(5-nitrofuran-2-yl)allylidene)-4-oxo-2-thioxothiazolidin-3-yl)hexanoic acid]	1.26	1.55	0.28
